According to PubChem BioAssay AID493014 (National Center for Advancing Translational Sciences (NCATS), 2011):
The list shows a part of the results. Further columns of the screen follow, without active or inactive calls. Compounds called inactive in the main read-out are mostly missing here. Words in brackets tell the shape of the fitted curve; partial curves, single points and poor fits give uncertain potencies.

Assay: qHTS Assay to Find Inhibitors of Chronic Active B-Cell Receptor Signaling
Conditions: ABC-DLBCL IkBa-CBG/CBR reporter, luminescence ratio (green luciferase fused to IkBa over red control in TMD8 lymphoma cells), 4 h
Procedure, shortened: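 Doxycycline induced both beetle luciferases in TMD8 lymphoma cells; IKK-driven degradation limits the IkappaBalpha-fused green signal, while red luminescence normalises for cell number and nonspecific effects. Compounds tested up to 46 uM, 4 hrs.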

[1] = measured here: CBR red luminescence, cell number
[2] = measured here: IkBa-CBG green luminescence

Row | SMILES | AC50 [1] | AC50 [2]
1 | Cc1cccc(N(C(=O)c2nsc(Cl)c2Cl)C(C(=O)NC2CCCC2)c2ccc(O)cc2)c1C (stereo not given) | 10.3 µM [falling, partial curve] | 
2 | O=C(O)CN1CCN(Cc2ccc(F)cc2)C1=O | 0.708 µM [rising, partial curve, poor fit] | 
3 | CCCOc1ccc(-c2csc(N)n2)cc1[N+](=O)[O-] | 8.2 µM [rising, partial curve] | 29.1 µM [falling, single point]
4 | CCOC(=O)N1CCC2(CC1)C(C#N)=C(N)Oc1n[nH]c(C)c12 | 16.4 µM [falling, partial curve, poor fit] | 
5 | O=C(O)Cn1nc2ccccc2n1 | 2.06 µM [rising, partial curve, poor fit] | 
6 | Cc1nn(CCC(=O)NNC(=S)Nc2ccc(F)cc2)c(C)c1Br | 32.6 µM [rising, single point] | 
7 | O=C(O)c1ccccc1Sc1c([N+](=O)[O-])cc(C(F)(F)F)cc1[N+](=O)[O-] | 20 µM [falling, partial curve, poor fit] | 
8 | COCCNC(=O)c1cc(-c2cccc(OC)c2)on1 | 20 µM [falling, single point] | 
9 | CN(C)CCNC(=O)/C=C/c1cn(-c2ccccc2)nc1-c1cc2ccccc2oc1=O | 35.5 µM [falling, single point] | 
10 | C/C(=N\NC(N)=S)C1(C)CC2(CC(C)(C)OC2=O)C(=O)O1 (stereo not given) | 3.16 µM [rising, partial curve] | 
11 | CCc1cccc(OCCn2nc(C(=O)O)c3ccccc3c2=O)c1 | 5.62 µM [rising, single point] | 
12 | CN(c1ccc(C(=O)Nc2ccc(Cl)cn2)cc1)S(=O)(=O)c1ccccc1 | 7.94 µM [falling, partial curve, poor fit] | 
13 | c1ccc(C2=Nn3c(nnc3-c3cc(-c4ccccc4)n[nH]3)SC2)cc1 |  | 13 µM [falling, partial curve, poor fit]
14 | COc1ccc(/C=C/c2cc(C(F)(F)F)on2)cc1 | 35.5 µM [rising, partial curve, poor fit] | 
15 | CCOC(=O)CC(=O)N/N=C/c1c(N)n(C)c(=O)n(C)c1=O | 7.08 µM [falling, full curve] | 
16 | COc1cc(OC)c(OC)cc1/C=C/c1nc2cc3ccccc3cc2c(=O)n1-c1ccccc1Br | 5.62 µM [falling, full curve] | 
17 | NNC(=O)c1ccc(OCC2CC(c3ccc(Cl)cc3)=NO2)cc1 (stereo not given) | 1.12 µM [falling, partial curve, poor fit] | 
18 | O=C(N/N=C/c1cc(Br)c(Br)o1)c1ccc2c(c1)OCCO2 | 11.2 µM [falling, partial curve, poor fit] | 
19 | COc1ccc(-n2cc(CNCC3CC(=O)N(C4CC4)C3)c(-c3ccccc3Cl)n2)cc1 (stereo not given) | 3.55 µM [rising, single point] | 
20 | COc1ccc(OC)c(-n2c(-c3cccc(O)c3)n[nH]c2=S)c1 | 20.6 µM [rising, single point] | 
21 | CN1CCN(C(=O)c2cc(-c3ccco3)on2)CC1 | 6.51 µM [rising, partial curve, poor fit] | 

Row | SMILES | AC50 [1] | AC50 [2]
22 | O=C(NCc1ccco1)C1CCN(C(=O)c2cc3sccc3n2Cc2ccc(Cl)cc2)CC1 | 13 µM [falling, partial curve, poor fit] | 
23 | Cn1c(=O)cc(SCC(=O)Nc2ccc3c(c2)OCO3)c2ccccc21 | 10 µM [rising, partial curve, poor fit] | 
24 | CCOC(=O)C1(Cc2ccccc2)CCN(Cc2cn(CC(=O)OC)c3ccccc23)CC1 | 17.8 µM [falling, partial curve, poor fit] | 
25 | CSCc1nc2scc(-c3ccccc3)c2c(=O)[nH]1 | 3.98 µM [rising, full curve, poor fit] | 
26 | O=C(COc1ccc(Cl)cc1Cl)NN1C(=O)/C(=C\c2ccc(Cl)cc2)SC1=S | 0.355 µM [rising, full curve, poor fit] | 
27 | O=[N+]([O-])c1ccc(O)c(/C=N/n2cnc3ccccc32)c1 | 0.731 µM [rising, full curve, poor fit] | 
28 | CCOc1c(Br)cc(CNc2ccc3c(c2)OCCO3)cc1OC | 11.6 µM [rising, partial curve, poor fit] | 13 µM [falling, partial curve, poor fit]
29 | CC1CCN(CC(=O)Nc2ccccc2Sc2ccccc2)CC1 | 18.4 µM [rising, partial curve, poor fit] | 
30 | COc1cccc(NC(=O)NCc2c(-c3ccccc3)noc2C)c1 | 15.8 µM [falling, single point] | 
31 | COc1ccc(N2C(=O)C(Cl)=C(Nc3ccccc3O)C2=O)cc1 | 13 µM [falling, partial curve, poor fit] | 
32 | O=C(NCc1ccc(N2CCCC2=O)cc1)c1ccc(F)cc1 | 15.8 µM [rising, single point] | 
33 | COc1cc2nc(-c3ccc(Br)o3)oc(=O)c2cc1OC | 6.31 µM [falling, partial curve, poor fit] | 
34 | CN(CC(=O)Nc1sccc1C(N)=O)S(=O)(=O)c1ccc(Cl)cc1 | 18.4 µM [rising, partial curve, poor fit] | 
35 | Cc1cc(C)n(-c2ccc(-n3ccnc3)nn2)n1 | 8.91 µM [falling, partial curve, poor fit] | 
36 | CCc1ccc([C@@H]2CC=C(C(=O)O)[C@H](c3ccccc3)N2S(=O)(=O)c2ccc(C)cc2)cc1 | 20.6 µM [falling, single point] | 
37 | COc1ccc(C(=O)N/N=C/c2c(C)[nH]c(=O)[nH]c2=O)cc1 | 20 µM [falling, partial curve, poor fit] | 
38 | Cc1c(NC(=O)c2cccs2)cccc1-c1nc2ccccc2s1 | 20.6 µM [falling, partial curve] | 18.4 µM [rising, partial curve, poor fit]
39 | N#CC(C#N)=C1C(=O)N(CCN2CCCCC2)c2ccccc21 | 3.16 µM [falling, partial curve, poor fit] | 
40 | Cc1ccc(Cl)cc1NC(=O)c1cc2ccccc2cc1O | 6.31 µM [falling, full curve] | 
41 | COC(=O)c1cccc(NC(=O)CN2CCN(Cc3ccccc3)CC2)c1 | 5.8 µM [falling, full curve, poor fit] | 
42 | Cc1[nH]nc(C(F)(F)F)c1CCC(=O)NC1CCCCCC1 | 0.82 µM [rising, partial curve, poor fit] | 

Three entries drawn at random from those above, as already listed:
Row | SMILES | AC50 [1] | AC50 [2]
22 | O=C(NCc1ccco1)C1CCN(C(=O)c2cc3sccc3n2Cc2ccc(Cl)cc2)CC1 | 13 µM [falling, partial curve, poor fit] | 
7 | O=C(O)c1ccccc1Sc1c([N+](=O)[O-])cc(C(F)(F)F)cc1[N+](=O)[O-] | 20 µM [falling, partial curve, poor fit] | 
30 | COc1cccc(NC(=O)NCc2c(-c3ccccc3)noc2C)c1 | 15.8 µM [falling, single point] | 

Next structures:

Row | SMILES | AC50 [1] | AC50 [2]
43 | O=C(CSc1n[nH]c(-c2ccc(Br)cc2)n1)NC1CCCC1 | 0.517 µM [rising, full curve, poor fit] | 
44 | Cc1cc(OCC(=O)NC(C)C)cc(C)c1Cl | 8.2 µM [rising, partial curve, poor fit] | 
45 | O=C(CSc1nnc(-c2ccccc2)c(-c2ccccc2)n1)N1CCOCC1 | 0.146 µM [falling, full curve, poor fit] | 
46 | CCn1nc(C)c(NS(=O)(=O)c2ccc(C)cc2)c1C | 23.1 µM [rising, single point] | 
47 | CC(=O)c1ccc(N2CCN(C(=O)c3cc(-c4ccncc4)nc4ccc(Br)cc34)CC2)cc1 | 0.562 µM [falling, partial curve, poor fit] | 
48 | O=C(Nc1ccccc1)C1CCCN1S(=O)(=O)c1cccs1 (stereo not given) | 9.2 µM [falling, partial curve, poor fit] | 
49 | CCc1c(C)sc(NC(=O)c2ccc(Br)o2)c1C(=O)OC | 23.1 µM [rising, single point] | 
50 | CCCNC(=O)c1ccc(N(Cc2ccccc2)S(C)(=O)=O)cc1 | 0.92 µM [falling, partial curve, poor fit] | 
51 | O=C(Nc1nnc(-c2ccc(Cl)cc2)o1)c1cccc(N2C(=O)CCC2=O)c1 | 5.17 µM [falling, full curve] | 
52 | O=C(O)CC(CC(=O)Nc1ccc(-n2ccc(C(F)(F)F)n2)cc1)c1ccccc1 (stereo not given) | 3.55 µM [rising, partial curve, poor fit] | 
53 | Cc1ccc(S(=O)(=O)C(CNS(=O)(=O)c2cc(F)ccc2F)c2cccs2)cc1 (stereo not given) | 0.2 µM [falling, full curve, poor fit] | 
54 | Cc1cc(C(=O)Nc2sc3c(c2C#N)CCC(C)C3)cs1 (stereo not given) | 0.82 µM [rising, full curve] | 
55 | Cc1n[nH]c(=O)c2c(NC(=O)CSc3nc4ccccc4c(=O)n3-c3ccc(OC(F)F)cc3)oc(C)c12 | 18.4 µM [falling, partial curve] | 
56 | CC(=O)Nc1cc(NC(C)=O)cc(C(=O)N2CCCC3CCCCC32)c1 (stereo not given) | 0.708 µM [rising, full curve, poor fit] | 
57 | COc1ccc(Cl)cc1NC(=O)CSc1nnc(CNC(=O)c2ccco2)o1 | 35.5 µM [rising, single point] | 
58 | NNC(=O)c1ccc(Cl)cc1Cl | 18.4 µM [falling, partial curve, poor fit] | 
59 | Cn1c(=O)[nH]c(=O)c2c1nc(NC1CCCCC1)n2CCO | 11.2 µM [rising, partial curve, poor fit] | 
60 | CCOc1c(Cl)cc(CNc2ccc(N3CCCC3)cc2)cc1OC |  | 28.2 µM [falling, single point]
61 | O=C(CSc1nc(=O)n(Cc2ccccn2)c2c1CCC2)Nc1ccccc1 | 35.5 µM [falling, partial curve, poor fit] | 
62 | CC1=C/C(=N\S(=O)(=O)c2ccccc2)C(C(C)C)=CC1=O | 8.91 µM [falling, partial curve, poor fit] | 
